{
  "source": "PubChem BioAssay AID504834",
  "about": "(National Center for Advancing Translational Sciences (NCATS), 2011)",
  "note": "Hit rate of the full screen: of about 320,000 compounds, about 22,000 (6.9%) were called active. The inconclusive results got no clear call from the source; some entries with a clear call stand among them for comparison. Calls follow the shape of the dose curve; as a rule, active = well fitted inhibition curve with a large enough effect; inconclusive = small, poorly fitted or top-dose-only effect, or another doubt; inactive = no such curve, though single readings can be large or run the other way. A potency beside an inconclusive call is a rough fit, not a confirmed value. Potency is read from the fitted curve at half-maximal effect.",
  "data": [
    {"experiment": "Primary qHTS for delayed death inhibitors of the malarial parasite plastid, 96 hour incubation", "settings": "P. falciparum luciferase reporter growth; series mostly up to 28.7 µM", "summary_of_the_method": "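Parasite growth measured via integrated firefly luciferase reporter in P. falciparum. Infected erythrocytes at 2% hematocrit, 0.05% parasitemia final were treated 96 hours at 37 C under 5% CO2, and luminescence was read.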", "values": [
      {"smiles": "COC(=O)c1c(C)nn(-c2ccc(OC(F)(F)F)cc2)c1-c1snnc1C", "Potency": "active: 13.1 µM"},
      {"smiles": "Cc1c([N+](=O)[O-])c(C(=O)Sc2ccc(Br)cc2)nn1C", "Potency": "inconclusive: 0.0029 µM [inhibitor, full curve, poor fit]"},
      {"smiles": "Cc1cc2c(s1)Nc1ccccc1N=C2N1CCN(C)CC1", "Potency": "inconclusive: 13.5 µM [inhibitor, single point]"},
      {"smiles": "CCCn1c(SCC(=O)N2CCN(c3ccc(OC)cc3)CC2)nc2c1c(=O)n(C)c(=O)n2C", "Potency": "inconclusive: 18.5 µM [inhibitor, single point]"},
      {"smiles": "Cc1csc(NC(=O)c2ccc(Br)s2)n1", "Potency": "inactive"},
      {"smiles": "COc1ccc(-c2cc(N3C(=O)Nc4ccccc4N3O)n[nH]2)cc1", "Potency": "inconclusive: 13.1 µM [inhibitor, single point]"},
      {"smiles": "Cc1cc(CNC(=O)C2CCC(=O)N(CCc3cccc(F)c3)C2)on1", "note": "(configuration not stated)", "Potency": "active: 13.1 µM"},
      {"smiles": "Cc1ccc(S(=O)(=O)NCC(=O)Nc2ccc3c(c2)OCCO3)cc1", "Potency": "inconclusive: 5.86 µM [inhibitor, partial curve, poor fit]"},
      {"smiles": "COc1cc(NC(=O)COc2cc(O)c3c(c2)OC(C)(C)CC3=O)cc(OC)c1", "Potency": "inconclusive: 13.1 µM [inhibitor, single point]"},
      {"smiles": "COC(=O)c1ccc2c(=O)n(CC3CCCO3)c(SCC(=O)Nc3ccc(OC)cc3OC)nc2c1", "note": "(configuration not stated)", "Potency": "inconclusive: 11.7 µM [inhibitor, single point]"},
      {"smiles": "Cc1ccc(C)c(S(=O)(=O)N2CCN(CC(=O)NC(=O)NCc3ccccc3)CC2)c1", "Potency": "inconclusive: 9.28 µM [inhibitor, single point]"},
      {"smiles": "Cc1cc(C(=O)Nc2ccccc2N2CCCCC2)no1", "Potency": "inactive"},
      {"smiles": "Cc1cc(C)nc(N2CCC(C(=O)O)CC2)n1", "Potency": "inactive"},
      {"smiles": "C=CCOc1ccccc1/C=N/n1nnnc1N", "Potency": "inconclusive: 18.5 µM [inhibitor, single point]"},
      {"smiles": "CCN(CC)S(=O)(=O)c1ccc(C(=O)Nc2cc(C)cc(C)c2)cc1", "Potency": "inconclusive: 10.4 µM [inhibitor, partial curve]"},
      {"smiles": "CCCN(C(=O)CSc1nnc(-c2ccoc2C)n1N)C1CCS(=O)(=O)C1", "note": "(configuration not stated)", "Potency": "inconclusive: 18.5 µM [inhibitor, single point]"},
      {"smiles": "COc1cc(C)nc(N(Cc2ccccc2)S(=O)(=O)c2ccc(C)cc2)n1", "Potency": "inconclusive: 11.7 µM [inhibitor, single point]"},
      {"smiles": "Cc1cc(Br)ccc1NC(=O)CNC(=O)CNc1cccc([N+](=O)[O-])c1", "Potency": "inactive"},
      {"smiles": "Cc1ccc2oc(=O)n(CCC(=O)Nc3ccc(N4CCOCC4)cc3)c2c1", "Potency": "inconclusive: 5.86 µM [inhibitor, partial curve, poor fit]"},
      {"smiles": "Cc1ccc(NC(=O)CCNS(=O)(=O)c2ccc3c(c2)oc(=O)n3C)cc1C", "Potency": "inactive"},
      {"smiles": "COc1ccc(/C=C2\\SC(=O)N(CCNC(=O)C3CCN(S(=O)(=O)c4cccs4)CC3)C2=O)cc1", "Potency": "inactive"},
      {"smiles": "Cc1cc(Cl)ccc1C(=O)C1CCCN(C(=O)c2cncs2)C1", "note": "(configuration not stated)", "Potency": "inactive"},
      {"smiles": "CCc1ccc(NC(=S)N(CCCN2CCOCC2)Cc2ccco2)cc1", "Potency": "inconclusive: 18.5 µM [inhibitor, single point]"},
      {"smiles": "COc1ccc(-n2c(=O)c3c4c(sc3n3c(=S)[nH]nc23)CCCC4)cc1", "Potency": "inconclusive: 13.1 µM [inhibitor, single point]"},
      {"smiles": "CCCCN1CNC(=S)N(c2ccccc2OCC)C1", "Potency": "inconclusive: 5.22 µM [inhibitor, partial curve]"},
      {"smiles": "COc1ccc(-c2cc(C(F)(F)F)n3nc(C(=O)N4CCOCC4)c(Cl)c3n2)cc1", "Potency": "inconclusive: 13.1 µM [inhibitor, single point]"},
      {"smiles": "O=C(N/N=C\\c1ccccc1OCc1ccccc1)c1ccco1", "Potency": "inconclusive: 18.5 µM [inhibitor, single point]"},
      {"smiles": "COc1ccc2nc3c(c(-c4ccccc4)c2c1)CCC3", "Potency": "inconclusive: 5.22 µM [inhibitor, partial curve]"},
      {"smiles": "C=CCn1c2ccccc2c(=O)c2cc(C#Cc3ccccn3)ccc21", "Potency": "active: 2.08 µM"},
      {"smiles": "CCOC(=O)CSc1nc2sc3c(c2c(=O)n1C1CCCCC1)CCN(C)C3", "Potency": "inconclusive: 14.7 µM [inhibitor, partial curve, poor fit]"},
      {"smiles": "COC(=O)C1=C(C)Nc2[nH]c(=S)[nH]c(=O)c2C1c1ccc(O)cc1", "note": "(configuration not stated)", "Potency": "inconclusive: 0.465 µM [inhibitor, full curve, poor fit]"},
      {"smiles": "O=C(CCS(=O)(=O)c1ccc(Br)cc1)Nc1cc(F)ccc1F", "Potency": "inconclusive: 18.5 µM [inhibitor, single point]"},
      {"smiles": "CC(C)c1ccc(/C=N/n2c(-c3ccccc3)n[nH]c2=S)cc1", "Potency": "inconclusive: 18.5 µM [inhibitor, single point]"},
      {"smiles": "CCn1nc(C)cc1C(=O)N1CCc2c([nH]c3ccccc23)C1c1cc(F)ccc1F", "note": "(configuration not stated)", "Potency": "inconclusive: 8.28 µM [inhibitor, partial curve, poor fit]"},
      {"smiles": "NC(=O)C(=O)NN=C1CCC(c2ccccc2)CC1", "note": "(configuration not stated)", "Potency": "inactive"},
      {"smiles": "CCCCCNC(=O)CCc1ccccc1", "Potency": "inactive"},
      {"smiles": "CCOc1ccc(C(=O)NCc2cccnc2)cc1[N+](=O)[O-]", "Potency": "inconclusive: 14.7 µM [inhibitor, single point]"},
      {"smiles": "CCN1CCN(C(c2cccs2)C(C)NS(=O)(=O)c2ccc(C)cc2)CC1", "note": "(configuration not stated)", "Potency": "inactive"},
      {"smiles": "COc1ccccc1NC(=O)c1ccccc1SC", "Potency": "inconclusive: 2.08 µM [inhibitor, full curve]"},
      {"smiles": "Cc1ccc(-n2c(-c3cnccn3)n[nH]c2=S)cc1", "Potency": "inactive"},
      {"smiles": "CCS(=O)(=O)c1ccc2oc(SCC(=O)Nc3ccc(OC)c(OC)c3)nc2c1", "Potency": "inactive"},
      {"smiles": "CCOC(=O)C(C(=O)OCC)N(C#N)c1nc(SC)nc(N(C)C)n1", "Potency": "inconclusive: 0.0329 µM [inhibitor, full curve, poor fit]"},
      {"smiles": "CCN(CC)CCCNC(=S)N1CCC(c2nc3ccccc3[nH]2)CC1", "Potency": "inconclusive: 18.5 µM [inhibitor, single point]"},
      {"smiles": "CCCC1=C(C(=O)OCC)C(c2sccc2C)n2ncnc2N1", "note": "(configuration not stated)", "Potency": "inconclusive: 0.928 µM [inhibitor, full curve]"},
      {"smiles": "c1ccc(Nc2cc(Nc3ccccc3)[nH]n2)cc1", "Potency": "inactive"},
      {"smiles": "Cc1cccc(N2C(=O)CC(c3ccc(F)cc3)C3=C2COC3=O)c1", "note": "(configuration not stated)", "Potency": "inconclusive: 6.57 µM [inhibitor, partial curve, poor fit]"},
      {"smiles": "C=CCn1c(SCC(=O)c2ccc(OC)cc2)nnc1-c1ccc2c(c1)OCO2", "Potency": "inconclusive: 18.5 µM [inhibitor, single point]"},
      {"smiles": "Cn1cccc1Cc1nnc(SCC(=O)Nc2ccc3c(c2)OCCO3)n1-c1ccc(F)cc1", "Potency": "inactive"},
      {"smiles": "O=C(/C=C1\\SC(=O)N(CC(=O)Nc2ccc(F)cc2)C1=O)Nc1ccc(Cl)cc1", "Potency": "inactive"},
      {"smiles": "Nc1cc(N)nc(SCc2cccc(F)c2)n1", "Potency": "inconclusive: 10.4 µM [inhibitor, partial curve, poor fit]"},
      {"smiles": "O=C(CSc1nc(=O)n(CCCN2CCOCC2)c2c1CCCC2)Nc1ccc(Cl)cc1", "Potency": "inconclusive: 18.5 µM [inhibitor, single point]"},
      {"smiles": "CC(C)Oc1ccc(CCC(=O)NNC(=S)NCc2ccccc2)cc1", "Potency": "inconclusive: 2.62 µM [inhibitor, full curve, poor fit]"},
      {"smiles": "COC(=O)c1cc(NS(=O)(=O)c2ccc(NCc3cccnc3)c([N+](=O)[O-])c2)cc(C(=O)OC)c1", "Potency": "inactive"},
      {"smiles": "CCCCOc1cccc(C2C(C(=O)c3ccc(C)o3)=C(O)C(=O)N2c2nnc(C)s2)c1", "note": "(configuration not stated)", "Potency": "inactive"},
      {"smiles": "CCn1c2ccccc2c2cc(NC(=O)CSc3nnc(-c4cccc(C)c4)o3)ccc21", "Potency": "inactive"},
      {"smiles": "COc1cccc(NC2=NC3(CCCCC3)N=C(N)N2)c1", "Potency": "inconclusive: 10.4 µM [inhibitor, partial curve, poor fit]"},
      {"smiles": "CCOC(=O)C1CCCN(C/C=C/c2ccccc2)C1", "note": "(configuration not stated)", "Potency": "inconclusive: 9.28 µM [inhibitor, partial curve]"},
      {"smiles": "CN1C(=O)c2ccccc2Sc2ccc(NC(=O)NC3CC3)cc21", "Potency": "inactive"},
      {"smiles": "CC(C)Cc1nnc(NC(=O)CCC(=O)N2CCN(Cc3ccccc3)CC2)s1", "Potency": "inactive"},
      {"smiles": "O=C(CSC(=S)N1CCCCC1)c1ccccc1", "Potency": "inactive"},
      {"smiles": "Nc1nnc(SCC(=O)Nc2ccc(N3CCOCC3)c(Cl)c2)s1", "Potency": "inactive"},
      {"smiles": "O=C(NCC1(c2ccccc2)CCCC1)c1ccc(Br)cc1", "Potency": "inconclusive: 14.7 µM [inhibitor, single point]"},
      {"smiles": "CCOc1ccccc1NC(=O)C1CCN(c2nc(-c3ccc(OC)cc3)no2)CC1", "Potency": "inactive"},
      {"smiles": "Cc1ccc(C(=O)/C=C/NCc2ccc(F)cc2)cc1", "Potency": "inactive"},
      {"smiles": "COc1cc(NC(=S)Nc2ccc3c(c2)OCCO3)cc(OC)c1OC", "Potency": "inactive"},
      {"smiles": "COc1ccc(-n2nnnc2SCC(=O)Nc2ccc3c(c2)OCCO3)c(OC)c1", "Potency": "inconclusive: 4.15 µM [inhibitor, partial curve]"},
      {"smiles": "COCCCNC(=O)Cn1cc(/C=C(\\C#N)C(=O)NC2CC2)c2ccccc21", "Potency": "inconclusive: 18.5 µM [inhibitor, single point]"},
      {"smiles": "CC(C)C(=O)NNc1ccc(C(F)(F)F)cn1", "Potency": "inactive"},
      {"smiles": "Fc1ccccc1Cn1c2[n+](c3ccc(C(F)(F)F)cc31)CCCCC2", "Potency": "active: 2.33 µM"},
      {"smiles": "CCOc1ccc(CCNC(=O)CSc2nn(-c3ccc(C)c(Cl)c3)c(=S)s2)cc1OCC", "Potency": "inconclusive: 11.7 µM [inhibitor, single point]"},
      {"smiles": "CCC(C)NC(=O)CCC(=O)OC1O[C@H]2OC3(C)CC[C@H]4[C@H](C)CCC(C1C)C24OO3", "note": "(some centres not stated)", "Potency": "inactive"},
      {"smiles": "Cc1ccc(NC(=O)C2CCCN2S(=O)(=O)c2ccc(-c3ccc(=O)[nH]n3)s2)c(C)c1", "note": "(configuration not stated)", "Potency": "inconclusive: 5.22 µM [inhibitor, partial curve]"}
    ]}
  ]
}
